In article PMC9882653:
These are yes or no findings as the source states them, for the method shown. Binding seen in cells or lysates may run through a third protein.

Amino acid sequences for entries named in this document (tags omitted). A change or cut given only in a name is not applied to a line headed by its entry.
UniProt Q9UM11: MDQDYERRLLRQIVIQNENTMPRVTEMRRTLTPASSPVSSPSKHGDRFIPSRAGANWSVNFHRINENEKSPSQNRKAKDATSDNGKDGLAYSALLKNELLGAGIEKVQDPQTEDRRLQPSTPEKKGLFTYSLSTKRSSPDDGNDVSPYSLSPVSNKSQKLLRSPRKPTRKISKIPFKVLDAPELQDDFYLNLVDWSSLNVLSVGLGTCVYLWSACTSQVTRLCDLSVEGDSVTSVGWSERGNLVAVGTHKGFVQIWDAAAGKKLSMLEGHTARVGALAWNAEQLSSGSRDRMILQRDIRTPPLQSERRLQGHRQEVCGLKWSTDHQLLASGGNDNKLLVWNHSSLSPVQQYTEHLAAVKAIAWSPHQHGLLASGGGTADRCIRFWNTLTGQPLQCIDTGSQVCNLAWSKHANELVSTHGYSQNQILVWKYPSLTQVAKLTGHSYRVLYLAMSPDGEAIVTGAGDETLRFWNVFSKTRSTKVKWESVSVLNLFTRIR
UniProt Q00534: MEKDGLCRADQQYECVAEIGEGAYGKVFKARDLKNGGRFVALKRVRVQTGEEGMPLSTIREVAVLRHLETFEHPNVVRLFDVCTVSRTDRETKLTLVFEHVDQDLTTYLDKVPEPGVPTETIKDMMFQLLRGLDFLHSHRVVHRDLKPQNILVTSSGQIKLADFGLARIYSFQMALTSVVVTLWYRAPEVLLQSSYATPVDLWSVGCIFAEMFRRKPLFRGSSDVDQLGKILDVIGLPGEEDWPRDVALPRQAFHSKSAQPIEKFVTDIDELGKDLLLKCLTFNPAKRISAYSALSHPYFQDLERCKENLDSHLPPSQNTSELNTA

Target: HA-CDH1 (wild type) (human) (UniProt Q9UM11)
Assay: co-IP; 293T cells transfected with indicated constructs for 36 hrs

**Q.** “CDK6 (from UniProt Q00534 1-326) (enzyme)” was tested. Which binding did it give?
**A.** no binding
